The text below walks through data of paper PMC10413355.

By UniProt entry, the sequences of proteins in these tests, tags left out. Residues count along the entry.
UniProt P47871, residues 26-477: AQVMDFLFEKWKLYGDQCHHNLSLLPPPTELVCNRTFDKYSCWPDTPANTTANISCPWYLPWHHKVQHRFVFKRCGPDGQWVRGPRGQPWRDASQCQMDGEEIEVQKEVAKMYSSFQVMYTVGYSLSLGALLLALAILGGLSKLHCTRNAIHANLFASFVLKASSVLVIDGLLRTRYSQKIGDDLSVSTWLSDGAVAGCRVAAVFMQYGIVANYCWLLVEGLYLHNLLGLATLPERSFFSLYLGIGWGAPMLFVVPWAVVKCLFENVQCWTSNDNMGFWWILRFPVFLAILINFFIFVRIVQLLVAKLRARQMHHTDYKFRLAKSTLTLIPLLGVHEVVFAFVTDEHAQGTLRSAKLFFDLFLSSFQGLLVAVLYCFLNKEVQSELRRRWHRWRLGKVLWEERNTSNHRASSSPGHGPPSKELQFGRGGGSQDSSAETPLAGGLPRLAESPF

No constants are given. Whether binding was seen depends on the method and setting. In cells and extracts the contact can be indirect. Some results given as binding are weak or reduced against the parent protein; the word gives no strength. Sequences can lack the tags named with a protein.

The assay concerns the target human glucagon receptor-GFP (human) (UniProt P47871). Briefly: co-IP; HEPG2 cells co-transfected with ARRDC4-C-Myc/FLAG and glucagon receptor-GFP (or receptor + empty vector), with or without glucagon (200 nM, 15 min); 500 ug lysate in 50 mM Tris-HCl, 500 mM NaCl, 1 mM EDTA, 1% Triton X-100, pH 7.4, on anti-FLAG or anti-GFP magnetic beads, 1 h at 4 °C; eluted with FLAG or GFP peptide; blotted for GFP and FLAG.

B1: human arrestin domain-containing 4 (ARRDC4) protein, C-Myc/FLAG-tagged (protein, UniProt Q8NCT1 1-418)
chain: MGGEAGCAAAVGAEGRVKSLGLVFEDERKGCYSSGETVAGHVLLEASEPVALRALRLEAQGRATAAWGPSTCPRASASTAALAVFSEVEYLNVRLSLREPPAGEGIILLQPGKHEFPFRFQLPSEPLVTSFTGKYGSIQYCVRAVLERPKVPDQSVKRELQVVSHVDVNTPALLTPVLKTQEKMVGCWFFTSGPVSLSAKIERKGYCNGEAIPIYAEIENCSSRLIVPKAAIFQTQTYLASGKTKTIRHMVANVRGNHIASGSTDTWNGKTLKIPPVTPSILDCCIIRVDYSLAVYIHIPGAKKLMLELPLVIGTIPYNGFGSRNSSIASQFSMDMSWLTLTLPEQPEAPPNYADVVSEEEFSRHIPPYPQPPNCEGEVCCPVFACIQEFRFQPPPLYSEVDPHPSDVEESQPVSFIL
In the case of B1, the binding entry was “binds”.
